Data published in publication PMC10605449 (Biosensors, 2023).
No constants are given. Whether binding was seen depends on the method and setting. Where a sequence is shown, tags or fusion partners need not be part of it.

Target: T1, Cellular biotinylated H/ACA ribonucleoprotein complex subunit Dyskerin pseudouridine synthase 1, His6-DKC1(1-514)-AviTag (UniProt O60832)
T1 sequence (chain, biotin on the AviTag (BirA, in the cells)): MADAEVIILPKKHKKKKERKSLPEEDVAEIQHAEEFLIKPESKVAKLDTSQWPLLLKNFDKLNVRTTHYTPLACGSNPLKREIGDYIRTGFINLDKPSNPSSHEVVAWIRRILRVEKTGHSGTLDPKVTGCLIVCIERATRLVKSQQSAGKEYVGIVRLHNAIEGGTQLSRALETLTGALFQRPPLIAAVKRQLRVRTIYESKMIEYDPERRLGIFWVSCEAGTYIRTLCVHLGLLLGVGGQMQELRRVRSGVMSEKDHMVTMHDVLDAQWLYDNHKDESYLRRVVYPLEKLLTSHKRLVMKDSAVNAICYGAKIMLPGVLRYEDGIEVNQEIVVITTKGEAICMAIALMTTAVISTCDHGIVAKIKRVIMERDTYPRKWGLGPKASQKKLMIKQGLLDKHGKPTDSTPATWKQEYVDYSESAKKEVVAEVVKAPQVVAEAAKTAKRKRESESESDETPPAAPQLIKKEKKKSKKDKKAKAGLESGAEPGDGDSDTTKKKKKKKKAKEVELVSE
Assay: SPR; cellular biotinylated His6-DKC1(1-514)-AviTag captured from soluble cell lysate (130 to 175 RU) on neutravidin-coated CM5 chip; RuvBL1/RuvBL2 complexes injected, 10 concentrations, 2-fold series from 0.05 µM; 20 mM NaKPi pH 7.5, 150 mM NaCl, 5 mM MgCl2, 1 mM DTT, 0.05% Tween 20; 25 °C; 1:1 Langmuir fit; only the binder purified

His6-RuvBL1_ΔDII/RuvBL2_ΔDII (complex)
binding: no binding (tested: 0.05 µM (highest concentration injected))
